PubChem BioAssay AID1259308 – NCATS, 2017

Screen: 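Candidate targets for better recombinant protein yield in mammalian cells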 (primary screen)
Cell system: human HEK293 embryonic kidney cells stably expressing firefly luciferase (HEK-CMV-Luc2-Hygro)
Reagents: single siRNA against human genes, 0.8 pmol siRNA per well
Timing: 72 h
Read-out: 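Reporter luminescence and viable-cell signal on separate replicate plates, given as percent of non-targeting control and median/MAD z-scores, plus per-cell luciferase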
Reading the numbers: total luciferase, z-score and total luciferase, % of control: higher = more reporter protein produced; luciferase per cell, z-score: higher = more reporter output per viable cell; viable cells, % of control: higher = more viable cells
Hit rule: 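An siRNA counts as active if its total luciferase robust z-score exceeds 3; genes with two or more such siRNAs out of three were retested with fresh siRNAs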
Calls: active = raised luciferase; inactive = no rise
In all, the deposit lists about 59,000 reagents; below is a part drawn at random. About 1,510 of all reagents (2.6%) were called active. 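Calls use total luciferase alone and ignore viability, so some active siRNAs may act by altering cell number.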 Reagents against one gene are numbered here. No sequences are given here.

Gene	reagent	total luciferase, z-score	total luciferase, % of control	luciferase per cell, z-score	viable cells, % of control	call
OR5H1 (olfactory receptor family 5 subfamily H member 1)	1	0.248	86.8	-0.288	105	inactive
OR5H1 (olfactory receptor family 5 subfamily H member 1)	2	-0.201	77.9	0.0122	86.8	inactive
OR5H1 (olfactory receptor family 5 subfamily H member 1)	3	-0.23	77.3	-0.452	97.3	inactive
RNF169 (ring finger protein 169)	1	-2.76	26.9	-3.07	67.6	inactive
RNF169 (ring finger protein 169)	2	-0.312	75.7	-0.598	99	inactive
RNF169 (ring finger protein 169)	3	1.46	111	1.48	83.9	inactive
CHI3L1 (chitinase 3 like 1)	1	-0.235	77.2	0.0992	84.1	inactive
CHI3L1 (chitinase 3 like 1)	2	1.68	115	1.2	94.1	inactive
CHI3L1 (chitinase 3 like 1)	3	0.112	84.1	1.07	70.9	inactive
PGS1 (phosphatidylglycerophosphate synthase 1)	1	0.0361	82.6	-0.0661	93.9	inactive
PGS1 (phosphatidylglycerophosphate synthase 1)	2	-0.149	78.9	-0.504	101	inactive
PGS1 (phosphatidylglycerophosphate synthase 1)	3	-0.132	79.3	-0.119	91.4	inactive
RALGAPA1 (Ral GTPase activating protein catalytic subunit alpha 1)	1	-0.0466	81	-0.32	98.4	inactive
RALGAPA1 (Ral GTPase activating protein catalytic subunit alpha 1)	2	-0.525	71.4	-0.131	82.6	inactive
RALGAPA1 (Ral GTPase activating protein catalytic subunit alpha 1)	3	0.974	101	0.372	103	inactive
ZMAT1 (zinc finger matrin-type 1)	1	-0.736	67.3	-1.36	108	inactive
ZMAT1 (zinc finger matrin-type 1)	2	0.955	101	0.678	94.3	inactive
ZMAT1 (zinc finger matrin-type 1)	3	0.276	87.4	-0.00854	97.9	inactive
ASPM (assembly factor for spindle microtubules)	1	0.00422	82	0.177	87.4	inactive
ASPM (assembly factor for spindle microtubules)	2	-0.138	79.1	-0.342	96.8	inactive
ASPM (assembly factor for spindle microtubules)	3	3.19	145	1.83	100	active
HEXA (hexosaminidase subunit alpha)	1	-0.433	73.3	0.0903	79.9	inactive
HEXA (hexosaminidase subunit alpha)	2	2.84	138	2.01	91.1	inactive
HEXA (hexosaminidase subunit alpha)	3	-0.291	76.1	-0.344	93.1	inactive
TBCK (TBC1 domain containing kinase)	1	-0.759	66.8	-0.735	90.6	inactive
TBCK (TBC1 domain containing kinase)	2	-0.116	79.6	-0.138	92.2	inactive
TBCK (TBC1 domain containing kinase)	3	0.215	86.2	0.494	84.5	inactive
DNAJC18 (DnaJ heat shock protein family (Hsp40) member C18)	1	-0.115	79.6	-0.487	101	inactive
DNAJC18 (DnaJ heat shock protein family (Hsp40) member C18)	2	-0.0676	80.5	-0.419	101	inactive
DNAJC18 (DnaJ heat shock protein family (Hsp40) member C18)	3	0.00454	82	-0.585	107	inactive
SLC24A5	1	0.041	82.7	-0.286	99.6	inactive
SLC24A5	2	-0.0883	80.1	-0.262	95.9	inactive
SLC24A5	3	1.05	103	0.198	109	inactive
MTX1 (metaxin 1)	1	-0.0555	80.8	0.057	88.9	inactive
MTX1 (metaxin 1)	2	0.475	91.3	0.477	90	inactive
MTX1 (metaxin 1)	3	-0.393	74.1	-0.644	98.1	inactive
SLC39A6	1	0.0517	82.9	-0.646	110	inactive
SLC39A6	2	-1.6	50	-1.86	91.1	inactive
SLC39A6	3	-1.19	58.3	-1.13	87.7	inactive
PSME3 (proteasome activator subunit 3)	1	-1.06	60.9	-1.16	92.4	inactive
PSME3 (proteasome activator subunit 3)	2	-1.27	56.6	-0.67	75.4	inactive
PSME3 (proteasome activator subunit 3)	3	-0.15	78.9	0.543	76.4	inactive
YY1 (YY1 transcription factor)	1	2.58	133	2.23	82.7	inactive
YY1 (YY1 transcription factor)	2	1.02	102	0.99	87.9	inactive
YY1 (YY1 transcription factor)	3	0.116	84.2	-0.175	98.5	inactive
DCAF4 (DDB1 and CUL4 associated factor 4)	1	0.189	85.7	0.405	86	inactive
DCAF4 (DDB1 and CUL4 associated factor 4)	2	0.276	87.4	0.364	88.7	inactive
DCAF4 (DDB1 and CUL4 associated factor 4)	3	-0.898	64	-0.486	81.3	inactive
OR11H12 (olfactory receptor family 11 subfamily H member 12)	1	0.153	84.9	-0.425	106	inactive
OR11H12 (olfactory receptor family 11 subfamily H member 12)	2	0.346	88.8	-0.254	106	inactive
OR11H12 (olfactory receptor family 11 subfamily H member 12)	3	0.374	89.3	-0.469	113	inactive
KLK3 (kallikrein related peptidase 3)	1	1.33	108	1.7	77.4	inactive
KLK3 (kallikrein related peptidase 3)	2	-2.61	30	-4.34	105	inactive
KLK3 (kallikrein related peptidase 3)	3	-0.352	74.9	-0.586	97.7	inactive
ZFP36L1 (ZFP36 like 1 zinc finger CCCH-type)	1	-2.81	26.1	-1.94	48.5	inactive
ZFP36L1 (ZFP36 like 1 zinc finger CCCH-type)	2	-1.46	52.8	-1.78	94.4	inactive
ZFP36L1 (ZFP36 like 1 zinc finger CCCH-type)	3	-0.84	65.2	-1.23	101	inactive

A portion from the list above:
Gene	reagent	total luciferase, z-score	total luciferase, % of control	luciferase per cell, z-score	viable cells, % of control	call
OR11H12 (olfactory receptor family 11 subfamily H member 12)	2	0.346	88.8	-0.254	106	inactive
OR11H12 (olfactory receptor family 11 subfamily H member 12)	3	0.374	89.3	-0.469	113	inactive
KLK3 (kallikrein related peptidase 3)	1	1.33	108	1.7	77.4	inactive
KLK3 (kallikrein related peptidase 3)	2	-2.61	30	-4.34	105	inactive
KLK3 (kallikrein related peptidase 3)	3	-0.352	74.9	-0.586	97.7	inactive
ZFP36L1 (ZFP36 like 1 zinc finger CCCH-type)	1	-2.81	26.1	-1.94	48.5	inactive
ZFP36L1 (ZFP36 like 1 zinc finger CCCH-type)	2	-1.46	52.8	-1.78	94.4	inactive
